# At least one structure is not confirmed: it was looked up by name or label, or the drawing left a doubt.
# System: HBE G542X/ΔF508 cells
# Assay: Ussing chamber short circuit current (Isc) in primary HBE G542X/ΔF508 cells
# Format: cell-based, Human
# Conditions: optimal dose of each lead compound; FSK 10 μM and VX-770 10 μM
# Procedure: Short circuit current (Isc) was measured under voltage clamp conditions as previously described (Rowe S M, et al., J Mol Med (Berl); 89: 1149-1161; 2011). Briefly, primary HBE cells as described herein were seeded on Costar […] permeable supports (5.3×10^5 cells/filter, 6.5 mm diameter; Bethesda, Md.) after coating with fibroblast-conditioned media (Liu X, et al., Am J Pathol; 180: 599-607, 2012). Well-differentiated cells were treated with compounds for 48 hours and Isc measurements were obtained by using an epithelial voltage clamp apparatus in Ussing chambers (Physiologic Instruments). […]
# Based on previous studies, primary HBE cells have been a valuable preclinical tool for predicting CF clinical trial results (Van Goor F, et al.; Proc Natl Acad Sci USA; 106:18825-18830; 2009; Ramsey B W, et al.; N Engl J Med; 365:1663-1672; 2011). […] It was shown previously that ivacaftor (formerly, VX-770), a CFTR potentiator that acts by increasing the open probability of CFTR at the cell surface, augments the ability of synthetic read-through drugs in restoring CFTR function (Xue X, et al.; American journal of respiratory cell and molecular biology; 50:[…]; 2014). The effect of ivacaftor in combination with the optimal dose of each lead compound as determined in FIG. 5A was determined. […]
compound,measurement,value
"COc1ccc2nc3cc(Cl)ccc3c(Nc3cc(CN4CCCC4)c(O)c(CN4CCCC4)c3)c2n1.O=P(O)(O)O.O=P(O)(O)O.O=P(O)(O)O.O=P(O)(O)O [Pyronaridine Tetraphosphate (PT), PYRONARIDINE TETRAPHOSPHATE]",Isc following forskolin stimulation with ivacaftor,6.210.3 uA/cm^2

# — US10960018B2, “Methods and compounds for stimulating read-through of premature termination codons” (The UAB Research Foundation, priority 2016, dated 2021)
